Results from PMC10817852, “Vascular injury activates the ELK1/SND1/SRF pathway to promote vascular smooth muscle cell proliferative phenotype and neointimal hyperplasia”.
For some of these results: A negative result means that nothing was seen under these conditions. For some of these results: At least one verdict rests on a figure or table, not on a statement of the authors. For some of these results: Protein sequences can lack the tags named with them. For some of these results: For at least one entry, the source does not settle the construct or the ends of the probe.

How the values were obtained:
Test in all cases: EMSA
SND1 (1-660) = target: T1, SND1 (1-660) (UniProt Q78PY7); conditions: SND1 alone; Beyotime GS009 chemiluminescent EMSA kit binding buffer (composition, salt and pH not given), 20 fmol biotin probe, 0.1 ug protein, 10 min at room temperature; recombinant protein; residues 1-660; label: biotin
T1 sequence (looked up): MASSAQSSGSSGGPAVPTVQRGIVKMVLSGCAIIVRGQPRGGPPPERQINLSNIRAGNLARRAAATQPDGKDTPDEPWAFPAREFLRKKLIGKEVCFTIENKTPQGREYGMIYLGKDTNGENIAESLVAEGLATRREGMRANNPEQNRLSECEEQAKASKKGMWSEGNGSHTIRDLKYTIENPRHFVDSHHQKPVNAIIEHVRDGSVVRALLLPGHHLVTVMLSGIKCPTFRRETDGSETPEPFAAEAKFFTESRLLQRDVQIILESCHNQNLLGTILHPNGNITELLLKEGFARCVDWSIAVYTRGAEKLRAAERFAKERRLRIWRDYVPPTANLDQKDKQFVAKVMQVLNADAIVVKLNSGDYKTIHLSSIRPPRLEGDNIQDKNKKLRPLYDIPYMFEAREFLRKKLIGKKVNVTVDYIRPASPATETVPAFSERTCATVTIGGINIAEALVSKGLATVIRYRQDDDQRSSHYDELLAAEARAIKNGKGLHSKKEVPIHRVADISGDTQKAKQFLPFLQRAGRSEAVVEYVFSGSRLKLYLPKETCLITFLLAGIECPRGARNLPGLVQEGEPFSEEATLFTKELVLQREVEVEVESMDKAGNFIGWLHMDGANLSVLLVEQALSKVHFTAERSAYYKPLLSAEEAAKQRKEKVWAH

SRF (1-266) = target: T2, SRF (1-266) (UniProt P11831); conditions: Beyotime GS009 chemiluminescent EMSA kit binding buffer (composition, salt and pH not given), 20 fmol biotin probe, 0.1 ug protein, 10 min at room temperature; recombinant protein; label: biotin
T2 sequence (looked up, limits assumed): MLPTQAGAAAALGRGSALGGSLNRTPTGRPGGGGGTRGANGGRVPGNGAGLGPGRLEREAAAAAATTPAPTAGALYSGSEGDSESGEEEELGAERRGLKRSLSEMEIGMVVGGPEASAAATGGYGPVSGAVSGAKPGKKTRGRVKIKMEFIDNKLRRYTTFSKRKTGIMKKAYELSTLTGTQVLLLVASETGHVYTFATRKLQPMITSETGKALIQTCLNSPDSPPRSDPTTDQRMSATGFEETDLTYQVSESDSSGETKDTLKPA

ELK1 = conditions: unlabeled probe (200-fold) diminished binding; Beyotime GS009 chemiluminescent EMSA kit binding buffer (composition, salt and pH not given), 20 fmol biotin probe, 0.1 ug protein, 10 min at room temperature; recombinant protein; label: biotin

| Sequence | binding result (SND1 (1-660)) | binding result (SRF (1-266)) | binding result (ELK1) |
| --- | --- | --- | --- |
| CCTTAAATGGCCTTAAATGGCCTTAAATGGCCTTAAATGGCCTTAAATGG (double strand) [Rock2 CArG probe] | no binding | binds |  |
| CCTATTTAGTCCTATTTAGTCCTATTTAGTCCTATTTAGTCCTATTTAGT (double strand) [Iqgap1 CArG probe] | no binding | binds |  |
| CCTATATAGACCTATATAGACCTATATAGACCTATATAGACCTATATAGA (double strand) [Cdk2 CArG probe] | no binding | binds |  |
| CCGGAAGTCCGGAAGTCCGGAAGTCCGGAAGTCCGGAAGT (double strand) [Snd1 ELK1-motif probe] |  |  | binds |
